Article doi:10.1101/2025.03.27.645708
Results are given in words; binding and its absence hold for the method and conditions named. Binding seen in cells or lysates may run through a third protein. Some results given as binding are weak or reduced against the parent protein; the word gives no strength.

Sequences of proteins named here, by UniProt entry; tags and fusion partners are left off.
UniProt O00463: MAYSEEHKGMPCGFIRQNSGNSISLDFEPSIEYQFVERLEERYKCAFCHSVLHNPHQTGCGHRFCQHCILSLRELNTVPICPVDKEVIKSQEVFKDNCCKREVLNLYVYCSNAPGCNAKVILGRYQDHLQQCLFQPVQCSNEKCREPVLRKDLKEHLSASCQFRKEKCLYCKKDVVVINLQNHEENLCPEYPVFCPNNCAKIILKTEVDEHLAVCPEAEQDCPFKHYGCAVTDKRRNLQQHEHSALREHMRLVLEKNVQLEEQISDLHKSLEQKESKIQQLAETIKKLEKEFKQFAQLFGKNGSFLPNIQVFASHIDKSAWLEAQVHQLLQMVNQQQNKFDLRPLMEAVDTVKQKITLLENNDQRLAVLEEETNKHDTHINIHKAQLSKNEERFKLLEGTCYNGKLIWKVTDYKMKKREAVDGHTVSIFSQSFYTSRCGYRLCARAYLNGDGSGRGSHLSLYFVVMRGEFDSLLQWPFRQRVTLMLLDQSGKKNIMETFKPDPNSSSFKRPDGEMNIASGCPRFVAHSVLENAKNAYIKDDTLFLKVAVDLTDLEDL
UniProt Q7Z6Z7: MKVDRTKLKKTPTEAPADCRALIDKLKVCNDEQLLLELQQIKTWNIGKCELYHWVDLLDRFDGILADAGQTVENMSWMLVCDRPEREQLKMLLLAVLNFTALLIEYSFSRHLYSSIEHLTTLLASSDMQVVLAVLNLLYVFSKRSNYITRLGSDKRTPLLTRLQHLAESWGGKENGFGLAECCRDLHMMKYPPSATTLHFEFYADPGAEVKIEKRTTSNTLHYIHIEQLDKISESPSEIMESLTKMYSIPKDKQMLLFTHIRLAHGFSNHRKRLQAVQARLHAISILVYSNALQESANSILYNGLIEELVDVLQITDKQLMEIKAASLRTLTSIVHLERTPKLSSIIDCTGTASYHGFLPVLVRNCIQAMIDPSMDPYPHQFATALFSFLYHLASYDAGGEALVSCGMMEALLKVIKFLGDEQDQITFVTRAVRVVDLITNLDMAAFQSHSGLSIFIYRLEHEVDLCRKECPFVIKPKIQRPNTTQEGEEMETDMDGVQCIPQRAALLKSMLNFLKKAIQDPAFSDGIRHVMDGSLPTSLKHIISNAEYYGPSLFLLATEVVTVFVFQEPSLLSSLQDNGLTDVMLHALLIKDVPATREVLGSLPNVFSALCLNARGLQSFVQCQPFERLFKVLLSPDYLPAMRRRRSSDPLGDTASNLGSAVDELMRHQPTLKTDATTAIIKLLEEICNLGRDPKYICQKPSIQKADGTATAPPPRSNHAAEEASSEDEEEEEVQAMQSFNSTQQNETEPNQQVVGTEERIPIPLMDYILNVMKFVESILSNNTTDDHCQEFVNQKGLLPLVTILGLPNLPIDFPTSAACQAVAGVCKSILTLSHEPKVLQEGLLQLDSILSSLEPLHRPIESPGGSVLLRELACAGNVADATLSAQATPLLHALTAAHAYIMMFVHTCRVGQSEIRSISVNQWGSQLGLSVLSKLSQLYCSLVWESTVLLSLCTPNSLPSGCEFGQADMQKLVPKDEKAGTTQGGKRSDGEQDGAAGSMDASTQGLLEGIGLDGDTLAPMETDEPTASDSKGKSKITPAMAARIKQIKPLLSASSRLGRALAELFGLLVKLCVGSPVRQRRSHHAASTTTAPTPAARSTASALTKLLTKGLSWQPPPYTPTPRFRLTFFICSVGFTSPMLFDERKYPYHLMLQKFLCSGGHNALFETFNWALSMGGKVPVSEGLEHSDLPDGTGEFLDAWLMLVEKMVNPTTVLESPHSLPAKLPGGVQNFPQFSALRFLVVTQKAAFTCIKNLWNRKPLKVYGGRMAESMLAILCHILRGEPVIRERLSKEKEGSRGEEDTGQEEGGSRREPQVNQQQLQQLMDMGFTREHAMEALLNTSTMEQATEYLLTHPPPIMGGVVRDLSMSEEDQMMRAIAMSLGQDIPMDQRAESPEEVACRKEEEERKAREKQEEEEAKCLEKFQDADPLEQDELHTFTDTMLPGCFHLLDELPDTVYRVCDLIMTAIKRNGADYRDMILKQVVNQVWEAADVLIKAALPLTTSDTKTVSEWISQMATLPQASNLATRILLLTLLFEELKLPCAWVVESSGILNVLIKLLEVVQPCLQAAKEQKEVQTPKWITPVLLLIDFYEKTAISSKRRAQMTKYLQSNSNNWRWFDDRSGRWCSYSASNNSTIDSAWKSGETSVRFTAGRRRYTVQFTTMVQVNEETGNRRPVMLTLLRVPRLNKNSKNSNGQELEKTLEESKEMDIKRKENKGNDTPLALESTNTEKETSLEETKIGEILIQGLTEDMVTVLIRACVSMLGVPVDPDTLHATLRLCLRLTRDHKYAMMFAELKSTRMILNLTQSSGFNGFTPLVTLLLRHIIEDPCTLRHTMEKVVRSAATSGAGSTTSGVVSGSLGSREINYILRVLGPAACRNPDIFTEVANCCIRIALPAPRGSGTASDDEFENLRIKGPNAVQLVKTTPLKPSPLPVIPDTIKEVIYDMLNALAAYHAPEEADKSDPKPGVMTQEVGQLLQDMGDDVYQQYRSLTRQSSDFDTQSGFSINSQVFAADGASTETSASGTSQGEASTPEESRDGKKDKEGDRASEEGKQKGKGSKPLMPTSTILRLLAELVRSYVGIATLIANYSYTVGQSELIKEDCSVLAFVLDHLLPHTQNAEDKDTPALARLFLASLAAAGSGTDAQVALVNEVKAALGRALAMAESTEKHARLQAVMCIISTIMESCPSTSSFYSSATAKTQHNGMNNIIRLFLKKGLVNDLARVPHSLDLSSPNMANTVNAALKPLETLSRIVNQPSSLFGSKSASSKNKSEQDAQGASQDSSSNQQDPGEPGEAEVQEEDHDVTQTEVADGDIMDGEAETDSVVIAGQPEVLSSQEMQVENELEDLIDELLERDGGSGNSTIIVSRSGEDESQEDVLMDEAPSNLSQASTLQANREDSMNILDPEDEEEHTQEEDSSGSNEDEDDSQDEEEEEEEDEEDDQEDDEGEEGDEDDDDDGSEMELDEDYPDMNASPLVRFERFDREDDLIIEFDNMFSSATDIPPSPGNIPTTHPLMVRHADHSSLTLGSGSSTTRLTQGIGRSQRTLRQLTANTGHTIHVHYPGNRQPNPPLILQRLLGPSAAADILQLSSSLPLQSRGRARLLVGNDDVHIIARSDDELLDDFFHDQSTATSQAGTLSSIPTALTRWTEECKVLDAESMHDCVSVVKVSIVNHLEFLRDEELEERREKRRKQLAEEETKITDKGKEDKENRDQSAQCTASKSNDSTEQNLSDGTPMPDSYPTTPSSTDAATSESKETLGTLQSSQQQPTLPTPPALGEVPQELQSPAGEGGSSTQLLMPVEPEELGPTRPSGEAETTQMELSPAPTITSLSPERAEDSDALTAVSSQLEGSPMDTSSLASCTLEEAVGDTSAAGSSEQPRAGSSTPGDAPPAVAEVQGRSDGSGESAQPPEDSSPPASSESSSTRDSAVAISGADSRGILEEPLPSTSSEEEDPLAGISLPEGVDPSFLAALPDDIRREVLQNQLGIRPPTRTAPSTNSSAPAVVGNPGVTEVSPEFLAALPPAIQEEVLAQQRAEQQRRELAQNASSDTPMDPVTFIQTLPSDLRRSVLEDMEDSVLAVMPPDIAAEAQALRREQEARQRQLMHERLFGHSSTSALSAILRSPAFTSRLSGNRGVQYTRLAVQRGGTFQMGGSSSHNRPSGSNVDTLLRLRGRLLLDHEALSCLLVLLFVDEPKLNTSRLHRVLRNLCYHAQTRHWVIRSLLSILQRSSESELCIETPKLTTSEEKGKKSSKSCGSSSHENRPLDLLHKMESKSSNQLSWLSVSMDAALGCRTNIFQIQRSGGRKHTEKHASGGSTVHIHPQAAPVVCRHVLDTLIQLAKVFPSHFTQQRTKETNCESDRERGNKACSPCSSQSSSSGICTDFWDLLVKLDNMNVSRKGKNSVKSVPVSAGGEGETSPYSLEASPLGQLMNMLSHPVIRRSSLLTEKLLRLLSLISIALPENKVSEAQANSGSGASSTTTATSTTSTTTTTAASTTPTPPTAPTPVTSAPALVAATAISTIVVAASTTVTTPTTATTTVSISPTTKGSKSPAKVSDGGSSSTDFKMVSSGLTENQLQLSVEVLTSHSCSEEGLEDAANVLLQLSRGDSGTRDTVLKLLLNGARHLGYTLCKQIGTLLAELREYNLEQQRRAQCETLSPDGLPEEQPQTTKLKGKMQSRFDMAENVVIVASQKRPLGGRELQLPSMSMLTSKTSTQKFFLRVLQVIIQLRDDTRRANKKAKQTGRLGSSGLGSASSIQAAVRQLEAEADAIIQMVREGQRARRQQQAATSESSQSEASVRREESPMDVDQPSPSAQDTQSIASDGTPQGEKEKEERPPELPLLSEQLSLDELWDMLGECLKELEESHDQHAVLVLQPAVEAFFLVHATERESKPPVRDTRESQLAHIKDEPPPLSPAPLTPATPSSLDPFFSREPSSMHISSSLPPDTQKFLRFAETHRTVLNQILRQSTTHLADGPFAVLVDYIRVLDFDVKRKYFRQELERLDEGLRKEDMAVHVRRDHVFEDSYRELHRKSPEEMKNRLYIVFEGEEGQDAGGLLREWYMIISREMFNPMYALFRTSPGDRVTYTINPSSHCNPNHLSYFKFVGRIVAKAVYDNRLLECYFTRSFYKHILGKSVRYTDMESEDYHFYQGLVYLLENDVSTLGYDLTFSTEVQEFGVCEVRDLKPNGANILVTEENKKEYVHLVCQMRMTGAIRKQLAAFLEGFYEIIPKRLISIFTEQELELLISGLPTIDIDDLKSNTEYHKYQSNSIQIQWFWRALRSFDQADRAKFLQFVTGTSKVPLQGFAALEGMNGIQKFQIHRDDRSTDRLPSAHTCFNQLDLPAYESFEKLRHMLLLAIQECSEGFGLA

Target: FLAG-TRAF5 (UniProt O00463)
Test: co-IP

- binding: binds
Substance: endogenous Huwe1 (from UniProt Q7Z6Z7 1-4374) (enzyme)
